Literature values as cited in patent US11801302B2, “Formulations and uses thereof” (priority 2020, dated 2023).
At least one structure is not confirmed: it was looked up by name or label, or the drawing left a doubt.

Test system: atypical/precancerous stem cells
Conditions: used separately or together

Row | SMILES | number of atypical/precancerous stem cells
1 | CC/C=C\C/C=C\C/C=C\C/C=C\C/C=C\C/C=C\CCC(=O)O [DHA, docosahexaenoic acid] | reduced the number of atypical/precancerous stem cells
2 | CC/C=C\C/C=C\C/C=C\C/C=C\C/C=C\CCCC(=O)O [EPA, eicosapentaenoic acid] | reduced the number of atypical/precancerous stem cells
